Measured values reported in patent publication US7884195B2, “Method of extracting ginsengnoside Rg2m, pharmaceutical composition including ginsengnoside Rg2, and uses thereof” (priority 2005, dated 2011).
For at least one compound, name, drawing or mass did not settle the structure.

System: PC12 cells
Experiment: MTT metabolism after glutamic acid damage of PC12 cells
Assay type: cell-based
Conditions: in comparison with the control group
Experimental: 100 μl/well of PC12 culture having a cell density of 10^5 cells/mL was inoculated into a 96-well plate and PC12 cells were allowed to adhere to walls of the plate. Wells were divided into 6 groups to which 6 wells were assigned each.
A serum-free medium was added to a non-treatment group, 1 mmol/L of a serum-free medium containing glutamic acid and an equal volume (1 mmol/L) of 20% 1,2-polyethylene glycol were added to a control group, 1 mmol/L of a serum-free medium containing glutamic acid and 0.1 mmol/L of respective structures of ginsenoside Rg2 were added to experimental groups, and 5 pmol of nimodipine, instead of ginsenoside Rg2, was added to a comparative group. Then, PC12 cells of respective groups were cultured at 37° C. for 20 hours.
20 μl/well of MTT (5 g/L) was added to respective groups and cells were continuously cultured at 37° C. for 4 hours. Then, the original medium was aspirated, and 0.1 ml/well of dimethyl sulfoxide (DMSO) was added to dissolve red granules. Next, optical density (OD) at 490 nm was measured using an enzyme-linked immuno-assay and then a t-test was made between groups.

COCCOC(=O)C1=C(C)NC(C)=C(C(=O)OC(C)C)C1c1cccc([N+](=O)[O-])c1 (stereo not shown) [Nimodipine, nimodipine, reference compound]
MTT metabolism of PC12 cells (in words): significantly increased MTT metabolism of PC12 cells
